PubChem BioAssay AID743454, Peter MacCallum Cancer Centre | 2014
Aim: 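Genes whose loss kills vorinostat-resistant colon cancer cells under vorinostat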 (primary screen). Cells: human HCT116-VR colon cancer cells, selected for vorinostat resistance. Reagents: siRNA pool against human genes, 40 nM siRNA pool. Timing: vorinostat for 24 h, read-out about 72 h after transfection. Challenge: vorinostat at 2.5 µM final. Measurement: 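Two measures, CellTiter-Fluor viability and luminescent caspase 3/7 activity, each as fold change against same-plate mock wells, mean of duplicates, then screen-wide robust z-score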. Reading the numbers: viability robust z-score: higher = more viable cells than screen typical; caspase robust z-score: higher = more caspase 3/7 activity than screen typical. Call rule: 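Hits are knock-downs in viability class RV1/RV2 or caspase class CA1/CA2, excluding ones that killed cells in the no-drug cell-count arm; hits then retested with single siRNAs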.
Here is one part, drawn at random, of about 18,000 reagents tested. 450 of all reagents (2.5%) were called active. 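Single biological run; no consistent viability z cut-off exists, so the class columns, not z-scores, define the calls.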

For ENO2 (enolase 2), what was measured?
viability hit class: no change; caspase hit class: no change; viability robust z-score: 0.22; caspase robust z-score: -0.17; activity call: inactive

For CD164 (CD164 molecule), what was measured?
viability hit class: no change; caspase hit class: no change; viability robust z-score: 0.14; caspase robust z-score: 0.26; activity call: inactive

Which result is listed for SEMA3B (semaphorin 3B)?
viability hit class: no change; caspase hit class: no change; viability robust z-score: 0.34; caspase robust z-score: -0.55; activity call: inactive

For CYP21A2 (cytochrome P450 family 21 subfamily A member 2), how do the results read?
viability hit class: no change; caspase hit class: no change; viability robust z-score: 0.2; caspase robust z-score: -0.34; activity call: inactive

Which result is listed for ARRB2 (arrestin beta 2)?
viability hit class: no change; caspase hit class: no change; viability robust z-score: 1.8; caspase robust z-score: 0.25; activity call: inactive

How did the screen score CCIN (calicin)?
viability hit class: no change; caspase hit class: no change; viability robust z-score: -0.98; caspase robust z-score: 2.89; activity call: inactive

For BMAL2 (basic helix-loop-helix ARNT like 2), what does the deposit list?
viability hit class: no change; caspase hit class: no change; viability robust z-score: 1.21; caspase robust z-score: 0.44; activity call: inactive

What is on record for MKNK1 (MAPK interacting serine/threonine kinase 1)?
viability hit class: no change; caspase hit class: no change; viability robust z-score: 0.89; caspase robust z-score: 1.22; activity call: inactive

For CYP2A13 (cytochrome P450 family 2 subfamily A member 13), what was measured?
viability hit class: no change; caspase hit class: no change; viability robust z-score: 0.14; caspase robust z-score: 0.21; activity call: inactive

Look-ups from the list:
Under “viability robust z-score”, CD164 (CD164 molecule) reads 0.14
ENO2 (enolase 2), viability hit class = no change
Result for BMAL2 (basic helix-loop-helix ARNT like 2) in “viability robust z-score”: 1.21

More reagents follow.
With FBXO47 (F-box protein 47), what does the deposit list?
viability hit class: no change; caspase hit class: no change; viability robust z-score: 0.42; caspase robust z-score: -0.7; activity call: inactive

What is on record for CASKIN1 (CASK interacting protein 1)?
viability hit class: no change; caspase hit class: no change; viability robust z-score: 0.57; caspase robust z-score: -0.49; activity call: inactive

With UGT1A9 (UDP glucuronosyltransferase family 1 member A9), what was measured?
viability hit class: no change; caspase hit class: no change; viability robust z-score: -0.9; caspase robust z-score: -0.92; activity call: inactive

For UQCRFS1, how do the results read?
viability hit class: no change; caspase hit class: no change; viability robust z-score: 0.4; caspase robust z-score: -0.75; activity call: inactive

What is on record for ANXA9 (annexin A9)?
viability hit class: no change; caspase hit class: no change; viability robust z-score: -1.23; caspase robust z-score: -0.76; activity call: inactive

For IQCF1 (IQ motif containing F1), what was measured?
viability hit class: no change; caspase hit class: no change; viability robust z-score: -0.2; caspase robust z-score: -0.13; activity call: inactive

With GJA10 (gap junction protein alpha 10), what was measured?
viability hit class: no change; caspase hit class: no change; viability robust z-score: 0.18; caspase robust z-score: -0.89; activity call: inactive

How did the screen score CDYL2 (chromodomain Y like 2)?
viability hit class: no change; caspase hit class: no change; viability robust z-score: 2.39; caspase robust z-score: 0.6; activity call: inactive

What did the screen give for PSORS1C2 (psoriasis susceptibility 1 candidate 2)?
viability hit class: no change; caspase hit class: no change; viability robust z-score: -1.77; caspase robust z-score: -0.52; activity call: inactive

What is on record for C9orf50 (chromosome 9 open reading frame 50)?
viability hit class: no change; caspase hit class: no change; viability robust z-score: 1.14; caspase robust z-score: 2.8; activity call: inactive

With MYOZ2 (myozenin 2), how do the results read?
viability hit class: no change; caspase hit class: no change; viability robust z-score: 0.09; caspase robust z-score: -1.11; activity call: inactive

With ZNF277 (zinc finger protein 277), what does the deposit list?
viability hit class: no change; caspase hit class: no change; viability robust z-score: -0.22; caspase robust z-score: -0.64; activity call: inactive
